The values below come from the supplement of paper PMC12819154, “High-throughput peptide-centric local stability assay extends protein–ligand identification to membrane proteins, tissues and bacteria” (Nature Structural & Molecular Biology, 2025).

The chains behind the UniProt entries cited, without tags or fusion partners. Where a name states a change or a piece, a line headed by the entry shows the natural chain unless it says otherwise.
UniProt P75818: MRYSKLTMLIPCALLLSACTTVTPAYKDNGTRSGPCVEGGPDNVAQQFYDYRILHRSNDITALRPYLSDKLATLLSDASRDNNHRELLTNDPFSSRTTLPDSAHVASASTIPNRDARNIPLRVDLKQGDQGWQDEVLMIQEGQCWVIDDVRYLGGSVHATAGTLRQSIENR
UniProt P75746: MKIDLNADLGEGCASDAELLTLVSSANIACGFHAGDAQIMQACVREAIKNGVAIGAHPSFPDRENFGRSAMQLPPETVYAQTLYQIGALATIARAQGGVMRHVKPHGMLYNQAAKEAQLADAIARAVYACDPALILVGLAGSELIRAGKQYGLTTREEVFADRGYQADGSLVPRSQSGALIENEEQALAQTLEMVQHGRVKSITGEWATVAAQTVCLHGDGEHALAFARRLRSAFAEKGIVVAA
UniProt P75849: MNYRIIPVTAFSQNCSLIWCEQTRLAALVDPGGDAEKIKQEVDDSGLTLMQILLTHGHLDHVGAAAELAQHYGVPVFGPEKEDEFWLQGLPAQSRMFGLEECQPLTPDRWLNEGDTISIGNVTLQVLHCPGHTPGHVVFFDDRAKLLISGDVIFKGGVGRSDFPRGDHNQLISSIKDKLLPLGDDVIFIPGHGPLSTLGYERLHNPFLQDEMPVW
UniProt P46890: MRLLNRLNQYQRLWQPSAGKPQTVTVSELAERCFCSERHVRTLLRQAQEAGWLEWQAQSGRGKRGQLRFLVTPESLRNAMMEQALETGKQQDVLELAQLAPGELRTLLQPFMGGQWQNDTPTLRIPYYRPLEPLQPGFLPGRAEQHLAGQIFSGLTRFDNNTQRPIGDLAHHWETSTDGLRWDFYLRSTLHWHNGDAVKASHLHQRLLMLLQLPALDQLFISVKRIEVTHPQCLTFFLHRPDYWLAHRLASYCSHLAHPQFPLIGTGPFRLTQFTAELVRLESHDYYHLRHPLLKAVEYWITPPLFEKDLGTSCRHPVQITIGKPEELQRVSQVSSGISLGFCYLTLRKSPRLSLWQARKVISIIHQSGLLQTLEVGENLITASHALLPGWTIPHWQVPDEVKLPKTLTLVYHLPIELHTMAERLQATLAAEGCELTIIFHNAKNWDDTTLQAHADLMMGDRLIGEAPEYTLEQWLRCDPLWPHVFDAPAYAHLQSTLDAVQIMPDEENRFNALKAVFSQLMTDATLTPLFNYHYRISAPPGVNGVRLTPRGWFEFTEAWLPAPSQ
UniProt P46118: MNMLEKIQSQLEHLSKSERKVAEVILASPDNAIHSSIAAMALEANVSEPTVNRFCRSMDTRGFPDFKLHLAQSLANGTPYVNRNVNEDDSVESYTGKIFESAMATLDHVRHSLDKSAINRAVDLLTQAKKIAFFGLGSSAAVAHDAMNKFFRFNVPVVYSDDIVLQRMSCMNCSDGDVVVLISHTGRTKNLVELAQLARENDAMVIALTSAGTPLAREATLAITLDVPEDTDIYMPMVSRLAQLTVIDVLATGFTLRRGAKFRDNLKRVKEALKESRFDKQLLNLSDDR
UniProt P52062: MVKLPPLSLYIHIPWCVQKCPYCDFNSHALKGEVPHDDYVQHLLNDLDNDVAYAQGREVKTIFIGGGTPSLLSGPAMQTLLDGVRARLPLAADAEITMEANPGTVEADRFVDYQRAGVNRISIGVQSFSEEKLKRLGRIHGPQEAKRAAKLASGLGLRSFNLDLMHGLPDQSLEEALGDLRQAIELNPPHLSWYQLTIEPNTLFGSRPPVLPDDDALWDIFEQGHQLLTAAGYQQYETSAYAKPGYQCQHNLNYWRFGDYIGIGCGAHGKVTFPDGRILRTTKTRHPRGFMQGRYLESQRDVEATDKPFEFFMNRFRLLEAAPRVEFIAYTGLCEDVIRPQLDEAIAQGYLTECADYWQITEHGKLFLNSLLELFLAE
UniProt P75745: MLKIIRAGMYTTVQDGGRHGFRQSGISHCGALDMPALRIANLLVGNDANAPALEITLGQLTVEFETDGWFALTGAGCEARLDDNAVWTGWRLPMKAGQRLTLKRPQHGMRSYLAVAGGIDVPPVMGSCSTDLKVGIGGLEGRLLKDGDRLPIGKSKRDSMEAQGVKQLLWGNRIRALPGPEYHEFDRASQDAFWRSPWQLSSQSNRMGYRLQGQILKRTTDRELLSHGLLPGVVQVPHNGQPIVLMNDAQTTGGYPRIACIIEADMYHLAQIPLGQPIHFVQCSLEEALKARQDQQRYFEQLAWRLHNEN
UniProt P46888: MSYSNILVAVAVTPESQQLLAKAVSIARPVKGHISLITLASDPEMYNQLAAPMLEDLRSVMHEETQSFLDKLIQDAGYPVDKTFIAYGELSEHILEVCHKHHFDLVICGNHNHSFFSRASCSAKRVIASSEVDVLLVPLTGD
UniProt P55734: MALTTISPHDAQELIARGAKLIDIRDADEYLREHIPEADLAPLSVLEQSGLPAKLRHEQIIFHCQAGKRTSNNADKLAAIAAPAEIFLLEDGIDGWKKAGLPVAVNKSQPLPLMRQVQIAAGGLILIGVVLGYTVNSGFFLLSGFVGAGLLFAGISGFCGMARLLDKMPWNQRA
UniProt P75863: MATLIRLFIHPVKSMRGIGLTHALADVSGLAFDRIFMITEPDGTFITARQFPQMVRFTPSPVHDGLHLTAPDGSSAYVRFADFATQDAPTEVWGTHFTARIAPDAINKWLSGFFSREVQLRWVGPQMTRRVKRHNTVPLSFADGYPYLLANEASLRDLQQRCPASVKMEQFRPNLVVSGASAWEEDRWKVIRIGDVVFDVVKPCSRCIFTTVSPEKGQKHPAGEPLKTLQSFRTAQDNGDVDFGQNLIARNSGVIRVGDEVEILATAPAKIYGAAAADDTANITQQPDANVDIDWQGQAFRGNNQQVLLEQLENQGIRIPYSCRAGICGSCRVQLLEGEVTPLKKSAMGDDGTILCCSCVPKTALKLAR
UniProt P52044: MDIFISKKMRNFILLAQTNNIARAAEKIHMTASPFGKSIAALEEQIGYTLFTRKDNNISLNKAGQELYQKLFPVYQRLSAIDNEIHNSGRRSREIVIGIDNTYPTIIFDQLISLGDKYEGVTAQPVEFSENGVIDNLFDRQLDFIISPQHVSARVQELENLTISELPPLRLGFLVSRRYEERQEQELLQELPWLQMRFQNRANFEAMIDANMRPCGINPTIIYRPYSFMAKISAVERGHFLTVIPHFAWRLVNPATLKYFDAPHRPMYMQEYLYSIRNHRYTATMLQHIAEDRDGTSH
UniProt P75824: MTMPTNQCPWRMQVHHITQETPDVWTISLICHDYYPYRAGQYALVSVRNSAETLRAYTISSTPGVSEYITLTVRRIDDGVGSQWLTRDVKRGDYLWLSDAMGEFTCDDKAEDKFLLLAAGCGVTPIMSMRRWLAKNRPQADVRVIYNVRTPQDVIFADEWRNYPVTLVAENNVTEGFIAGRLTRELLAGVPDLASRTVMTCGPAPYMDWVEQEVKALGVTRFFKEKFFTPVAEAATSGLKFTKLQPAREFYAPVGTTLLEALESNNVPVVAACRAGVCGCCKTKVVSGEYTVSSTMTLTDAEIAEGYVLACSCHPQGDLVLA
UniProt P75785: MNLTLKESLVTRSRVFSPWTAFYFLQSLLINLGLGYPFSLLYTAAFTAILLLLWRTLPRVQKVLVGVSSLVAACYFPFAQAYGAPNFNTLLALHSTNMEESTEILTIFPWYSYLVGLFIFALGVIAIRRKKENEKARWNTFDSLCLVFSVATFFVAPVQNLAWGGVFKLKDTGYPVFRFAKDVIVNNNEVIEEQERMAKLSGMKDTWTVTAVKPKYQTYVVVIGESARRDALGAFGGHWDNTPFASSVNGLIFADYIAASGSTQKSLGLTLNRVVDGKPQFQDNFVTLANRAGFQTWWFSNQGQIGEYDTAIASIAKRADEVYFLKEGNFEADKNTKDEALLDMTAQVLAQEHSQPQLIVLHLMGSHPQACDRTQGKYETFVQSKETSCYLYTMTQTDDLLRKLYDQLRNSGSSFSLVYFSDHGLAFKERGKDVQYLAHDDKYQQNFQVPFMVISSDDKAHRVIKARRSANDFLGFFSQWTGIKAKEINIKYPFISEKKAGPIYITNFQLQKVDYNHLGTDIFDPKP
UniProt P64602: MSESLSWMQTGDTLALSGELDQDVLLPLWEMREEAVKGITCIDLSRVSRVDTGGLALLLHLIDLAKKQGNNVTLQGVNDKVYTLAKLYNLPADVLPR
UniProt P75793: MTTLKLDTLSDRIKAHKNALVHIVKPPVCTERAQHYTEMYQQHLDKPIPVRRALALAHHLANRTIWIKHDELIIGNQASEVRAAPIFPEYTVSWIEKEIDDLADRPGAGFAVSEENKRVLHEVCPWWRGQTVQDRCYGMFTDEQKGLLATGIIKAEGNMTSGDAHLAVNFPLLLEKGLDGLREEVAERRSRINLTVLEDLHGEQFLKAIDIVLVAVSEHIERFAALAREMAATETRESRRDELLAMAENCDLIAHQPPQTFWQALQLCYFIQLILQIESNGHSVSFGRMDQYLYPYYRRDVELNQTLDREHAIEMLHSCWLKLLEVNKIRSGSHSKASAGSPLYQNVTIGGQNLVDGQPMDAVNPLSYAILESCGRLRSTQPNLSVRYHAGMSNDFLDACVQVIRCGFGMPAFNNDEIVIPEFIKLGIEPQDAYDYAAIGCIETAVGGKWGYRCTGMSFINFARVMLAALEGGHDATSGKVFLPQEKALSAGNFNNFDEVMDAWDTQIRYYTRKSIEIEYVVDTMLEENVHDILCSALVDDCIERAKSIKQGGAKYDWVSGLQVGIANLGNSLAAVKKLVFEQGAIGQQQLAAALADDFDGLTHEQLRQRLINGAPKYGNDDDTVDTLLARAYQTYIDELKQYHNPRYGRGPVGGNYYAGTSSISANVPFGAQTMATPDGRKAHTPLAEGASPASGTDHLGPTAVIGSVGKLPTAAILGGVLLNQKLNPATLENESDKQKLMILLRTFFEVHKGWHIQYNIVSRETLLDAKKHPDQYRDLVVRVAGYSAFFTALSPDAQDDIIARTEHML
UniProt P75783: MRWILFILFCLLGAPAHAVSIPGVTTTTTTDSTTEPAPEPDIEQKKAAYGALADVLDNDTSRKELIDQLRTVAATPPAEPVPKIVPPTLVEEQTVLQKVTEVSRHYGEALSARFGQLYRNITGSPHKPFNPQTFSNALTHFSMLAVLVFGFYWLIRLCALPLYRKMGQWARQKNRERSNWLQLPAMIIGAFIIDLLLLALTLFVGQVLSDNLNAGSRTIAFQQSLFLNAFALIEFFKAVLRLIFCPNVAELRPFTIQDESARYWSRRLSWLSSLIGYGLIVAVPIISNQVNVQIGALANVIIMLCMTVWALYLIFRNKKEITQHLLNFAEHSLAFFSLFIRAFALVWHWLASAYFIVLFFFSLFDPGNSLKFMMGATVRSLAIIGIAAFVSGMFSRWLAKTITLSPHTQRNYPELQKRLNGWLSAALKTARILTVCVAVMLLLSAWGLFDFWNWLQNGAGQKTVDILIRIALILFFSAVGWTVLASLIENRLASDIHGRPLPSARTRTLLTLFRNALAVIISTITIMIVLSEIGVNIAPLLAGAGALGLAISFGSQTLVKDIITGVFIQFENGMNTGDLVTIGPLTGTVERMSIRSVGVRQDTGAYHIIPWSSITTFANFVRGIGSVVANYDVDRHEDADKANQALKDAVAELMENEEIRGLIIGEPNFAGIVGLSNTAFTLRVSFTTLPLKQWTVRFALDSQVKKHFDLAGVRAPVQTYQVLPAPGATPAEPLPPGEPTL
UniProt P75736: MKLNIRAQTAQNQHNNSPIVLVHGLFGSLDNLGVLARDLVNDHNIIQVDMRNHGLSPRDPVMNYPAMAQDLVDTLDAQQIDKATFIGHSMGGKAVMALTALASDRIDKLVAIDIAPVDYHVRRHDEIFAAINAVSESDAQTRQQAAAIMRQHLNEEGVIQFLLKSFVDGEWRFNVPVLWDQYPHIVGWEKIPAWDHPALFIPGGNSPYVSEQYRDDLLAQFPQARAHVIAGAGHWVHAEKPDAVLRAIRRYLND
UniProt P56262: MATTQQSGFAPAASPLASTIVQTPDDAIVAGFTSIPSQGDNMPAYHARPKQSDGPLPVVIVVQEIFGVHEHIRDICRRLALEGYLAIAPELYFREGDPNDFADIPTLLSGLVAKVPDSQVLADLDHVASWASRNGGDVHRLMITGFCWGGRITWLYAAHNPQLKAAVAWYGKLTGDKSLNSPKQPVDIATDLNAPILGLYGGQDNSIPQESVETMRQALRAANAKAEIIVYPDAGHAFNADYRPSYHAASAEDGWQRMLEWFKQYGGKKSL
UniProt P64474: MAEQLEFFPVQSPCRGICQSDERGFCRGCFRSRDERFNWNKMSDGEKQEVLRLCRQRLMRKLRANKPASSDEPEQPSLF
UniProt P52037: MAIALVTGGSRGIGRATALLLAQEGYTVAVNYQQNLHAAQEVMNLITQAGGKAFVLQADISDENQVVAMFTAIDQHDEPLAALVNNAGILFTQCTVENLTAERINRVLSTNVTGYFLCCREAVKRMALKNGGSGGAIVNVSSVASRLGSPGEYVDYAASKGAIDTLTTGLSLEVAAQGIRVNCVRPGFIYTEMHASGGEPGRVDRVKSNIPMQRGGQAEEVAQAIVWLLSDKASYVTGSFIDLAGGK

The other results are listed elsewhere or left out. Small differences around the control level are noise.

Compound in the test: CC1(C)S[C@@H]2[C@H](NC(=O)[C@H](N)c3ccccc3)C(=O)N2[C@H]1C(=O)O [ampicillin]
In words: log2 fold change of tryptic peptide abundance, ligand vs vehicle (limited proteolysis) (log2 ratio); higher = more trypsin-susceptible (destabilized). The note with it: ligand concentration: 10 uM; sample: E. coli crude lysate.
In the case of “UniProt P75818 (peptide sequence: NIPLRVDLK, peptide start residue: 118)”, the log2 fold change is -0.12.
For “UniProt P75746 (peptide sequence: EAQLADAIAR, peptide start residue: 116)”, the log2 fold change was -0.114.
Turning to “UniProt P75849 (peptide sequence: LAALVDPGGDAEK, peptide start residue: 25)”, the log2 fold change was -0.185.
Take “UniProt P46890 (peptide sequence: AEQHLAGQIFSGLTR, peptide start residue: 143)”: the log2 fold change turned out to be 0.169.
Turning to “UniProt P46118 (peptide sequence: KIAFFGLGSSAAVAHDAMNK, peptide start residue: 130)”, the log2 fold change came to 0.413.
As for “UniProt P52062 (peptide sequence: PGYQCQHNLNYWR, peptide start residue: 244)”, the log2 fold change was 0.472.
Consider “UniProt P75745 (peptide sequence: QSGISHCGALDMPALR, peptide start residue: 23)”, for which the log2 fold change was -0.129.
Consider “UniProt P46888 (peptide sequence: SVMHEETQSFLDK, peptide start residue: 59)”, for which the log2 fold change is -0.085.
With “UniProt P55734 (peptide sequence: DADEYLR, peptide start residue: 26)”, the log2 fold change is -0.476.
Take “UniProt P75863 (peptide sequence: FTPSPVHDGLHLTAPDGSSAYVR, peptide start residue: 57)”: the log2 fold change was 0.235.
In the case of “UniProt P52044 (peptide sequence: NHRYTATMLQHIAEDR, peptide start residue: 278)”, the log2 fold change was -0.13.
“UniProt P75824 (peptide sequence: ELLAGVPDLASR, peptide start residue: 185)”: the log2 fold change was -0.155.
With “UniProt P75785 (peptide sequence: LSGMKDTWTVTAVKPK, peptide start residue: 200)”, the log2 fold change was -1.49.
As for “UniProt P75794 (peptide sequence: HVADAPFK, peptide start residue: 184)”, the log2 fold change came to 0.502.
Regarding “UniProt P64602 (peptide sequence: LYNLPADVLPR, peptide start residue: 87)”, the log2 fold change is -0.214.
With “UniProt P75793 (peptide sequence: VFLPQEK, peptide start residue: 481)”, the log2 fold change is 0.0631.
In the case of “UniProt P75783 (peptide sequence: ELIDQLR, peptide start residue: 64)”, the log2 fold change amounted to 0.197.
To “UniProt P75736 (peptide sequence: DLVNDHNIIQVDMR, peptide start residue: 38)” belongs 0.311.
On to “UniProt P56262 (peptide sequence: ITWLYAAHNPQLK, peptide start residue: 152)”, for which the log2 fold change is -0.324.
With “UniProt P69829 (peptide sequence: MGSTGIGNGIAIPHGKLEEDTLR, peptide start residue: 60)”, the log2 fold change is 0.299.
With “UniProt P64474 (peptide sequence: MSDGEKQEVLR, peptide start residue: 42)”, the log2 fold change is -0.136.
Take “UniProt P52037 (peptide sequence: VKSNIPMQR, peptide start residue: 206)”: the log2 fold change turned out to be 0.146.
